# In article PMC5548489:
# Chains of the proteins cited; added tags and fusions are not shown.
# UniProt P12814: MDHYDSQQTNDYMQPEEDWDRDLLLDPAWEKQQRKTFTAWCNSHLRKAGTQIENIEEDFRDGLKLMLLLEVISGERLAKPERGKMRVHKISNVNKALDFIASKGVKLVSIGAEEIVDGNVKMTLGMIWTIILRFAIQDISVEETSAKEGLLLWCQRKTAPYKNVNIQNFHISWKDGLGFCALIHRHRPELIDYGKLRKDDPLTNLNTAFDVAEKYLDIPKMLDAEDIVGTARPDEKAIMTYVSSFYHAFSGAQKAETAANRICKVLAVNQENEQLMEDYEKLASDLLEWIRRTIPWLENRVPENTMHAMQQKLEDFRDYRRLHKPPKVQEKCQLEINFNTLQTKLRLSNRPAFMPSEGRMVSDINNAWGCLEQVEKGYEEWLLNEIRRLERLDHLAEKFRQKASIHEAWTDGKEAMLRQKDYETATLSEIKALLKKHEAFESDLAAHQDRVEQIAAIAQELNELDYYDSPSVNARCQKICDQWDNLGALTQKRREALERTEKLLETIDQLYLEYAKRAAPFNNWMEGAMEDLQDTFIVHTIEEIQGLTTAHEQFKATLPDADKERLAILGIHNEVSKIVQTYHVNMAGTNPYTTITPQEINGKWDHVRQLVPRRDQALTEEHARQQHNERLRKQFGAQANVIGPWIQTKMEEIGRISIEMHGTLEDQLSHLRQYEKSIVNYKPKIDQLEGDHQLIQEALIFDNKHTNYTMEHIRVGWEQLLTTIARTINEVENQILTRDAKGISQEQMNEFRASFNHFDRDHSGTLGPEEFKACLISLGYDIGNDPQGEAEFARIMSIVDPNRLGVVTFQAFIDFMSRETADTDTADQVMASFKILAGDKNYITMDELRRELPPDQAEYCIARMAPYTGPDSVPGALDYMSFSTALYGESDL
# UniProt O95365: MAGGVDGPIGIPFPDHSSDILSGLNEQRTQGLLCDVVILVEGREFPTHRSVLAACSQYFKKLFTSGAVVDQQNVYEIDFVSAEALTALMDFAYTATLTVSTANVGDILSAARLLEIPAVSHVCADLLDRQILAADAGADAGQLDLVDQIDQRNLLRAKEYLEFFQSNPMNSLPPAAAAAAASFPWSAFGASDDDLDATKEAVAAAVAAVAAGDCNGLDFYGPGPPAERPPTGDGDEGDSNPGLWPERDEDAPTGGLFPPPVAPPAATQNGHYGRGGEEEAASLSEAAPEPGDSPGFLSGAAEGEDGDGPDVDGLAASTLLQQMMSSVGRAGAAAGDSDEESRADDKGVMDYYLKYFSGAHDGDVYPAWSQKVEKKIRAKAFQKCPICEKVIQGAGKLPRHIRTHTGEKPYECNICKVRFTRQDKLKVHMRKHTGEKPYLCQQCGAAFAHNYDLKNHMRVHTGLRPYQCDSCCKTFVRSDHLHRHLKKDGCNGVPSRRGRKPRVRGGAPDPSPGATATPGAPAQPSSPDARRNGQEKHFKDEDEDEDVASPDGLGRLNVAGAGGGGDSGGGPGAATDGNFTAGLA
# UniProt Q92878: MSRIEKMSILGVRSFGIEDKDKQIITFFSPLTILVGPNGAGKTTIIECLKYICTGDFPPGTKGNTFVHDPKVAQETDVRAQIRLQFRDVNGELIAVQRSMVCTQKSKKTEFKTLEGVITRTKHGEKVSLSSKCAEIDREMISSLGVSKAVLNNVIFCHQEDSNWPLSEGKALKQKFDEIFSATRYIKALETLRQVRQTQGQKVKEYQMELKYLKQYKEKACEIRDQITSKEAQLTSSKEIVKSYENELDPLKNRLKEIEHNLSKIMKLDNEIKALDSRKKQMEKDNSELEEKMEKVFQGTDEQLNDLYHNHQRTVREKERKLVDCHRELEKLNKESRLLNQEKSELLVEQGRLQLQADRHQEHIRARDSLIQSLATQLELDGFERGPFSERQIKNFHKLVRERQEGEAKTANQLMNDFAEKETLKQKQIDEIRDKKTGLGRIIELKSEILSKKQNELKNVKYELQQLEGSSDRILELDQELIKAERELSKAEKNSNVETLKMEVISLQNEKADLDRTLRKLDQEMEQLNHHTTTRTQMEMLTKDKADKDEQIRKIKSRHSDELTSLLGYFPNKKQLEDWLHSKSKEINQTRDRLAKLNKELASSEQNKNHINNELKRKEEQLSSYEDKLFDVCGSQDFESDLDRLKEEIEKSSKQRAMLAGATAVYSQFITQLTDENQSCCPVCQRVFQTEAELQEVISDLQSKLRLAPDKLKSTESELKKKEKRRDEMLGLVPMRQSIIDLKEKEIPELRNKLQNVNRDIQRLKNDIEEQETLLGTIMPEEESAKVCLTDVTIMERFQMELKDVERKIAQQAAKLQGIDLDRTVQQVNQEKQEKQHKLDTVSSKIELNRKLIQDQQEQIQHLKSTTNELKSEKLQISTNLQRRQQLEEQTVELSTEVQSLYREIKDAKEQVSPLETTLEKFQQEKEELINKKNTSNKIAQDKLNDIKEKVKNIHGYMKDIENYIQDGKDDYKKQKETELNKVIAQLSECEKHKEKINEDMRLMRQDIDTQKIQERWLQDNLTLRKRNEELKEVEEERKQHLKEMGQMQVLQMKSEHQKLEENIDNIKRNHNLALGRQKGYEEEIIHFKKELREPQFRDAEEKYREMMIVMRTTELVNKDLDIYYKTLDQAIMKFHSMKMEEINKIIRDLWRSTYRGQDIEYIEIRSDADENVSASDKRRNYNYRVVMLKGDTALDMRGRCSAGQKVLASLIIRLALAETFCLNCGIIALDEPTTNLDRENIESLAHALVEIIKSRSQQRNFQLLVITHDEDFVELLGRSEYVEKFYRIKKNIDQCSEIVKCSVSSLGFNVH
# UniProt O75475: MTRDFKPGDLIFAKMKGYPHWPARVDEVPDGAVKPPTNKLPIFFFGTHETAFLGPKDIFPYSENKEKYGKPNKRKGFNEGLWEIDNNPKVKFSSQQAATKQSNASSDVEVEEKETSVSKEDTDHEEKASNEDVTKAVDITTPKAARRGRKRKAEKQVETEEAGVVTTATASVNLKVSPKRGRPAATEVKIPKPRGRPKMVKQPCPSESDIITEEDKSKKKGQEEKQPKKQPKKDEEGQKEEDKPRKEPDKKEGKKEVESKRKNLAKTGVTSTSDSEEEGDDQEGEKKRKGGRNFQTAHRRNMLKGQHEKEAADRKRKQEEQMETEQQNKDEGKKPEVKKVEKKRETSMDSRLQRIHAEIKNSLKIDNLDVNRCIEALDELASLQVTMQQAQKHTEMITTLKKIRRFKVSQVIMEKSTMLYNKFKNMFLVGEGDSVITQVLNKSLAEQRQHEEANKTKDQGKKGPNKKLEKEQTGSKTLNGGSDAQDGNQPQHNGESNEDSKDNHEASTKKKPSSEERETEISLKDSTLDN
# UniProt Q9UQE7: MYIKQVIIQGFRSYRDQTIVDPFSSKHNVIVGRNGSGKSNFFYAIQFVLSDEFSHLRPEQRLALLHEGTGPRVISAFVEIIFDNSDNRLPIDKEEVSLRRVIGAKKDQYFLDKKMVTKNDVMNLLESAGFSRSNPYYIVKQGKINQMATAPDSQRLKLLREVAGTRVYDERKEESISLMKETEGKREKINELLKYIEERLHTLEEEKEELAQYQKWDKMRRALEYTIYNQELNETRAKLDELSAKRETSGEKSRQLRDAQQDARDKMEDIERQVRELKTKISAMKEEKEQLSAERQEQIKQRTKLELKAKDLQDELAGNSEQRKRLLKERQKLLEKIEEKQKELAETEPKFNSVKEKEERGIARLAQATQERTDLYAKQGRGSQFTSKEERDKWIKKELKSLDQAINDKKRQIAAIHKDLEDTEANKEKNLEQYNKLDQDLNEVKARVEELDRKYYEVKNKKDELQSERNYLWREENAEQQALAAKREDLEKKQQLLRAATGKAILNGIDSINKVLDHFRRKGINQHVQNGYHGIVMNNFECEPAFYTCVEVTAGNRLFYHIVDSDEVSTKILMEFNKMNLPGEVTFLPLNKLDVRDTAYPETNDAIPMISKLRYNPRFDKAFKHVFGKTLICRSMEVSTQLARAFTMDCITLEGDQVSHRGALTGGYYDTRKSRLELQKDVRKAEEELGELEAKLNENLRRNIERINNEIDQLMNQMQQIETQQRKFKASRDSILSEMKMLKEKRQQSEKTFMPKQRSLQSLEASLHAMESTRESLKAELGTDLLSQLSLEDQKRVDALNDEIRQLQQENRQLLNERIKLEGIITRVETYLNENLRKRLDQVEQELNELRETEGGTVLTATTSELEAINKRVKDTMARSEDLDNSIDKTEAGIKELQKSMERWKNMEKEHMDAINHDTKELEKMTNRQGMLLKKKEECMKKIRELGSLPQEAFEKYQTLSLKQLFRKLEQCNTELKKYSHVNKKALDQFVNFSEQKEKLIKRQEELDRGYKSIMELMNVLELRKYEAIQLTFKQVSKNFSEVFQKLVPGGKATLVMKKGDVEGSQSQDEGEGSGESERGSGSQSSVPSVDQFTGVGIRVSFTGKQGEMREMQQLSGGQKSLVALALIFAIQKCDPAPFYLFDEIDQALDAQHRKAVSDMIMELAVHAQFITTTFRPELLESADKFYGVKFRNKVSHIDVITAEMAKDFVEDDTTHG
# UniProt Q16401: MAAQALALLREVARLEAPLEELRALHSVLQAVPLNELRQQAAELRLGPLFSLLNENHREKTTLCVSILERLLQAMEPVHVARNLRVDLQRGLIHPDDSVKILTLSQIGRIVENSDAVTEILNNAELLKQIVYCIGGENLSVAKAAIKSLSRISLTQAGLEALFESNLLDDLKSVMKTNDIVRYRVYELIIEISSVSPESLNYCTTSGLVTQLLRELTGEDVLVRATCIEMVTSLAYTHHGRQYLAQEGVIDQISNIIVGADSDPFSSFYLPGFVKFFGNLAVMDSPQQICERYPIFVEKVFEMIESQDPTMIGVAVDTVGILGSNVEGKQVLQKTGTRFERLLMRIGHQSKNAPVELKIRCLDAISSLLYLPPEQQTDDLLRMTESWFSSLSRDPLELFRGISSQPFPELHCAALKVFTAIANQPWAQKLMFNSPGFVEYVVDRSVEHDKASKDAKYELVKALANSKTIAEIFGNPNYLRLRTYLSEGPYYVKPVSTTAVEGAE
# UniProt Q96A65: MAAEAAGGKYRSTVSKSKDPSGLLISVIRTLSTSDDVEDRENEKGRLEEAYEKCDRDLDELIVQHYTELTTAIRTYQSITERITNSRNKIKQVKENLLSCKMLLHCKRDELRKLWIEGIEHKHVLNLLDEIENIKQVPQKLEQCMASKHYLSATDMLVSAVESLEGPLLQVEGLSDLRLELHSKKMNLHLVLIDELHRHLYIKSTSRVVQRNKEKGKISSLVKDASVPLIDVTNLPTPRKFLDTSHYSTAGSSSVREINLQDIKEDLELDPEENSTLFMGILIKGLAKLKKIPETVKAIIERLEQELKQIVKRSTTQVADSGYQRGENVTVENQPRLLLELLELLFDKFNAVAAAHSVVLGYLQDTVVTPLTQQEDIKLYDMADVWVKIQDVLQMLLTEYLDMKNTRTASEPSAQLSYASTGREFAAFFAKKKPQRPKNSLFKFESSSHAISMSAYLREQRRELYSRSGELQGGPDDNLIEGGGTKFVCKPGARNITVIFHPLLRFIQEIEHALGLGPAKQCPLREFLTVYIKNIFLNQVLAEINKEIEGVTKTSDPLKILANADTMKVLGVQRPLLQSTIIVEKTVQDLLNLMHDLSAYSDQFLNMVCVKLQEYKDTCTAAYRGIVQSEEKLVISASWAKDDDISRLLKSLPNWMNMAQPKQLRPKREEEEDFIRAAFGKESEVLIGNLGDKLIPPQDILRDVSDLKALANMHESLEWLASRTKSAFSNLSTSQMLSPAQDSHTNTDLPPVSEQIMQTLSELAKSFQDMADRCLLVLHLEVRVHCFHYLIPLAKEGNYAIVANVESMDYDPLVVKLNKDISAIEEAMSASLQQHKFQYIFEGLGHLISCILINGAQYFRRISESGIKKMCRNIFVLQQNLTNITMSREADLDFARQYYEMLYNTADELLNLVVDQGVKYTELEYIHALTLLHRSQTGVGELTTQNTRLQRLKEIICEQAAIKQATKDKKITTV
# UniProt O43242: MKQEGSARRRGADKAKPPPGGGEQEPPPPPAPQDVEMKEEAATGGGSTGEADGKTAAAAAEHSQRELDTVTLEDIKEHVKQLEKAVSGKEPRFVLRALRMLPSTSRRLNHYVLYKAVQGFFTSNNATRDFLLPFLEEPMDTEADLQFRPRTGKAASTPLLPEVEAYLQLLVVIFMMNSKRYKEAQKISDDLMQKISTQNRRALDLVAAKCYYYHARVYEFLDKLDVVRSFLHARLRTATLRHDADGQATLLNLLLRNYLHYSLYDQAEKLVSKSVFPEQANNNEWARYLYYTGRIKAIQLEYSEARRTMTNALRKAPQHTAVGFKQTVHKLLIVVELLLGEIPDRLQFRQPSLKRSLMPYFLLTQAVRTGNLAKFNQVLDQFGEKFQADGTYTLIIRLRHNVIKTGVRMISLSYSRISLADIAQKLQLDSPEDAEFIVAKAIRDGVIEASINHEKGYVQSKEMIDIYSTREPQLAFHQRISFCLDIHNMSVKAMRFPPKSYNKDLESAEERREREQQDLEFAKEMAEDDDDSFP
# Results are given in words; binding and its absence hold for the method and conditions named. In cells and extracts the contact can be indirect. These calls come from enrichment with a bait or labelling near it, and not all partners need be listed.
# Molecular target: estrogen receptor alpha (ER) (human (endogenous in MCF-7 and ZR-75)) (UniProt P03372)
# Assay: affinity purification with mass spectrometry; anti-ER antibody (Santa Cruz sc-8002) on Dynabeads Protein G, 1.5 mg lysate of MCF-7 or ZR-75 cells overnight at 4°C; cells starved, vehicle or 10 µM ERX-11 for 2 hr, then 10 nM E2 for 2 hr; the named proteins are ER binders whose co-precipitation was disrupted by ERX-11
row,binding,Substance
1,binds,EIF4G2 (from UniProt P78344 1-907)
2,binds,EXOC3 (from UniProt O60645 1-745)
3,binds,PPP3CA (from UniProt Q08209 1-521)
4,binds,ZCCHC8 (from UniProt Q6NZY4 1-707)
5,binds,SYNCRIP (from UniProt O60506 1-623)
6,binds,RANBP2 (from UniProt P49792 1-3224)
7,binds,DYNC1H1 (from UniProt Q14204 1-4646)
8,binds,DDX20 (from UniProt Q9UHI6 1-824)
9,binds,SMARCD2 (from UniProt Q92925 1-531)
10,binds,GEMIN5 (from UniProt Q8TEQ6 1-1508)
11,binds,NCBP1 (from UniProt Q09161 1-790)
12,binds,CUL4B (from UniProt Q13620 1-913)
13,binds,EXOC5 (from UniProt O00471 1-708)
14,binds,NUP153 (from UniProt P49790 1-1475)
15,binds,KDM3B (from UniProt Q7LBC6 1-1761)
16,binds,SCRIB (from UniProt Q14160 1-1655)

row,binding,Substance
1,binds,DDX17 (from UniProt Q92841 1-729)
2,binds,EP400 (from UniProt Q96L91 1-3159)
3,binds,INTS5 (from UniProt Q6P9B9 1-1019)
4,binds,DIDO1 (from UniProt Q9BTC0 1-2240)
5,binds,SF3B1 (from UniProt O75533 1-1304)
6,binds,INTS2 (from UniProt Q9H0H0 1-1196)
7,binds,NUMA1 (from UniProt Q14980 1-2115)
8,binds,RBM10 (from UniProt P98175 1-930)
9,binds,GTF2I (from UniProt P78347 1-998)
10,binds,PCF11 (from UniProt O94913 1-1555)
11,binds,TRAM1 (from UniProt Q15629 1-374)
12,binds,MCM2 (from UniProt P49736 1-904)
13,binds,PRPF40a (from UniProt O75400 1-957)
14,binds,ACTN1 (from UniProt P12814 1-892)
15,binds,COPB1 (from UniProt P53618 1-953)

# Further lines, the substance ahead of its results:
row,Substance,binding
1,SEC23A (from UniProt Q15436 1-765),binds
2,Coatomer subunit alpha (from UniProt P53621 1-1224),binds
3,EXOC2 (from UniProt Q96KP1 1-924),binds
4,DMAP1 (from UniProt Q9NPF5 1-467),binds
5,KPNB1 (from UniProt Q14974 1-876),binds
6,MED1 (from UniProt Q15648 1-1581),binds
7,PELP1 (from UniProt Q8IZL8 1-1130),binds
8,DDX23 (from UniProt Q9BUQ8 1-820),binds
9,AP2A2 (from UniProt O94973 1-939),binds
10,ZNF217 (from UniProt O75362 1-1048),binds
11,ZBTB7A (from UniProt O95365 1-584),binds
12,RAD50 (from UniProt Q92878 1-1312),binds
13,PREX1 (from UniProt Q8TCU6 1-1659),binds
14,EIF2S2 (from UniProt P20042 1-333),binds
15,CSE1L (from UniProt P55060 1-971),binds
16,CLTC (from UniProt Q00610 1-1675),binds
17,PSIP1 (from UniProt O75475 1-530),binds
18,SMARCA4 (from UniProt P51532 1-1647),binds
19,INTS4 (from UniProt Q96HW7 1-963),binds
20,VCP (from UniProt P55072 1-806),binds
21,EPRS (from UniProt P07814 1-1512),binds
22,TUBB (from UniProt P07437 1-444),binds
23,SMC3 (from UniProt Q9UQE7 1-1217),binds

row,Substance,binding
1,SMARCA2 (from UniProt P51531 1-1590),binds
2,TUBA1B (from UniProt P68363 1-451),binds
3,ACTN4 (from UniProt O43707 1-911),binds
4,AHNAK (from UniProt Q09666 1-5890),binds
5,CPSF3L (from UniProt Q5TA45 1-600),binds
6,PSMC1 (from UniProt P62191 1-440),binds
7,PSMD5 (from UniProt Q16401 1-504),binds
8,SMARCC2 (from UniProt Q8TAQ2 1-1214),binds
9,SF3B3 (from UniProt Q15393 1-1217),binds
10,PPP2R1A (from UniProt P30153 1-589),binds
11,DHX15 (from UniProt O43143 1-795),binds
12,EXOC8 (from UniProt Q8IYI6 1-725),binds
13,TNPO1 (from UniProt Q92973 1-898),binds
14,EXOC4 (from UniProt Q96A65 1-974),binds
15,KPNA4 (from UniProt O00629 1-521),binds
16,PSMD3 (from UniProt O43242 1-534),binds
17,PSMC4 (from UniProt P43686 1-418),binds
18,HNRNPK (from UniProt P61978 1-463),binds
19,TRIM33 (from UniProt Q9UPN9 1-1127),binds
20,SMCHD1 (from UniProt A6NHR9 1-2005),binds
21,SMC4 (from UniProt Q9NTJ3 1-1288),binds
22,POLR3C (from UniProt Q9BUI4 1-534),binds
23,CHD1L (from UniProt Q86WJ1 1-897),binds
